Publication PMC3823998, “Structural and Functional Characterization of the Redβ Recombinase from Bacteriophage λ” (PLoS ONE, 2013)
Residue numbers refer to the chain shown, from its start. Results are given in words; binding and its absence hold for the method and conditions named. Some binding calls cover weakened binding; strength is not graded here.

Experiments:
Redβ K148A = biological target: T1, Redβ K148A (Bacteriophage λ (Enterobacteria phage λ), UniProt P03698 1-261, K148A); assay: negative-stain transmission electron microscopy; 10 µM protein without ssDNA, 20 mM potassium phosphate pH 6.0, 20 mM MgCl2, 37°C 40 min, fixed with 0.6% glutaraldehyde, diluted 5-fold, stained with 3% phosphotungstic acid; self-association; both purified
T1 sequence: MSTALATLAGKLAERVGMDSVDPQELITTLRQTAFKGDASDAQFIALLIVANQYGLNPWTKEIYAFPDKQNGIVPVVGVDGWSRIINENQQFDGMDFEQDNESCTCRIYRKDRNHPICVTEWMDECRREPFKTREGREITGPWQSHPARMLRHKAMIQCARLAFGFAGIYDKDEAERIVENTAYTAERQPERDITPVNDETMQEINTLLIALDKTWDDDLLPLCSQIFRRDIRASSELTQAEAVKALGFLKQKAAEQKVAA

Redβ R149A = biological target: T2, Redβ R149A (Bacteriophage λ (Enterobacteria phage λ), UniProt P03698 1-261, R149A); assay: as above
T2 sequence: T1 sequence with A148K, R149A

B1: Redβ K148A (natural protein, bacteriophage λ)
chain: GSHMSTALATLAGKLAERVGMDSVDPQELITTLRQTAFKGDASDAQFIALLIVANQYGLNPWTKEIYAFPDKQNGIVPVVGVDGWSRIINENQQFDGMDFEQDNESCTCRIYRKDRNHPICVTEWMDECRREPFKTREGREITGPWQSHPARMLRHKAMIQCARLAFGFAGIYDKDEAERIVENTAYTAERQPERDITPVNDETMQEINTLLIALDKTWDDDLLPLCSQIFRRDIRASSELTQAEAVKALGFLKQKAAEQKVAA
notes: three residues (Gly-Ser-His) left before the initial methionine after thrombin removal of the tag; Redβ, recombinase of Enterobacteria phage λ, alanine substitution mutant; By gel filtration complexes of approximately 3 subunits; source: E. coli BL21(DE3), purified (HisTrap FF, thrombin digestion, HisTrap FF, Benzamidine FF); not shown: His6, N-terminal, cleaved
For B1, the binding (Redβ K148A) was “binds weakly”.

B2: Redβ R149A (natural protein, bacteriophage λ)
chain: B1 chain with A151K, R152A
notes: as for B1
With B2 the binding (Redβ R149A) was “binds weakly”.
